# Laboratory results: the supplement of paper PMC8728848
# The list shows a part of the results.
# B1: MUB70 (Lactobacillus reuteri) (protein)
# chain: CVHVQYIDGETDQMLRQDDLDGYTDETIPYSTAEGIKKFEGDGYELFKDNFPAGEKFDNDDTNDQFYTVIF
# Key:
# Assay in all cases: glycan array binding signal (z-score within array); higher = stronger binding
# Conditions in all cases: glycan notation: IUPAC condensed, linker removed
# [1] = biological target: Neu5Ac(a2-6)Gal(b1-4)GlcNAc(b1-3)Gal(b1-4)GlcNAc(b1-3)Gal(b1-4)GlcNAc
# Outline: (§1)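 From the Consortium for Functional Glycomics database, 3228 arrays were curated, keeping only those whose protein sequence was available. Binding is given as a within-array Z-score averaged across arrays sharing a protein sequence and across linkers. Negative Z-scores can be read as non-binding.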
# [2] = biological target: Neu5Ac(a2-6)Gal(b1-4)GlcNAc(b1-3)Gal(b1-4)GlcNAc(b1-3)Gal(b1-4)GlcNAc(b1-2)Man(a1-3)[Neu5Ac(a2-6)Gal(b1-4)GlcNAc(b1-3)Gal(b1-4)GlcNAc(b1-3)Gal(b1-4)GlcNAc(b1-2)Man(a1-6)]GalNAc
# Outline: as §1
# [3] = biological target: Neu5Ac(a2-6)Gal(b1-4)GlcNAc(b1-3)Gal(b1-4)GlcNAc(b1-3)GalNAc
# Outline: as §1
# [4] = biological target: Neu5Ac(a2-6)Gal(b1-4)GlcNAc(b1-3)Gal(b1-4)GlcNAc(b1-3)[Neu5Ac(a2-6)Gal(b1-4)GlcNAc(b1-3)Gal(b1-4)GlcNAc(b1-6)]GalNAc
# Outline: as §1
# [5] = biological target: Neu5Ac(a2-6)Gal(b1-4)GlcNAc(b1-3)Gal(b1-4)GlcNAc(b1-6)[Gal(b1-3)]GalNAc
# Outline: as §1
# [6] = biological target: Neu5Ac(a2-6)Gal(b1-4)GlcNAc(b1-3)Gal(b1-4)[Fuc(a1-3)]GlcNAc(b1-3)Gal(b1-4)[Fuc(a1-3)]GlcNAc
# Outline: as §1
# [7] = biological target: Neu5Ac(a2-6)Gal(b1-4)GlcNAc(b1-3)GalNAc
# Outline: as §1
# [8] = biological target: Neu5Ac(a2-6)Gal(b1-4)GlcNAc(b1-3)[Neu5Ac(a2-6)Gal(b1-4)GlcNAc(b1-6)]GalNAc
# Outline: as §1
# [9] = biological target: Neu5Ac(a2-6)Gal(b1-4)GlcNAc(b1-6)GalNAc
# Outline: as §1
# [10] = biological target: Neu5Ac(a2-6)Gal(b1-4)GlcNAc(b1-6)[Gal(b1-3)GlcNAc(b1-3)]Gal(b1-4)Glc
# Outline: as §1
# [11] = biological target: Neu5Ac(a2-6)Gal(b1-4)GlcNAc(b1-6)[Gal(b1-3)]GalNAc
# Outline: as §1
# [12] = biological target: Neu5Ac(a2-6)Gal(b1-4)GlcNAc6S
# Outline: as §1
# [13] = biological target: Neu5Ac(a2-6)GalNAc
# Outline: as §1
# [14] = biological target: Neu5Ac(a2-6)GalNAc(b1-4)GlcNAc
# Outline: as §1
# [15] = biological target: Neu5Ac(a2-6)GalNAc(b1-4)GlcNAc6S
# Outline: as §1
# [16] = biological target: Neu5Ac(a2-6)GlcNAc(b1-4)GlcNAc
# Outline: as §1
# [17] = biological target: Neu5Ac(a2-6)GlcNAc(b1-4)GlcNAc(b1-4)GlcNAc
# Outline: as §1
# [18] = biological target: Neu5Ac(a2-8)Neu5Ac
# Outline: as §1
# [19] = biological target: Neu5Ac(a2-8)Neu5Ac(a2-3)Gal(b1-3)GalNAc(b1-4)[Neu5Ac(a2-3)]Gal(b1-4)Glc
# Outline: as §1
# [20] = biological target: Neu5Ac(a2-8)Neu5Ac(a2-3)Gal(b1-3)GalNAc(b1-4)[Neu5Ac(a2-8)Neu5Ac(a2-3)]Gal(b1-4)Glc
# Outline: as §1
# [21] = biological target: Neu5Ac(a2-8)Neu5Ac(a2-3)Gal(b1-4)Glc
# Outline: as §1
# [22] = biological target: Neu5Ac(a2-8)Neu5Ac(a2-3)Gal(b1-4)GlcNAc
# Outline: as §1
# [23] = biological target: Neu5Ac(a2-8)Neu5Ac(a2-3)[Gal(b1-3)GalNAc(b1-4)]Gal(b1-4)Glc
# Outline: as §1
# [24] = biological target: Neu5Ac(a2-8)Neu5Ac(a2-3)[GalNAc(b1-4)]Gal(b1-4)Glc
# Outline: as §1
# [25] = biological target: Neu5Ac(a2-8)Neu5Ac(a2-8)Neu5Ac
# Outline: as §1
# [26] = biological target: Neu5Ac(a2-8)Neu5Ac(a2-8)Neu5Ac(a2-3)Gal(b1-4)Glc
# Outline: as §1
# [27] = biological target: Neu5Ac(a2-8)Neu5Ac(a2-8)Neu5Ac(a2-3)[Gal(b1-3)GalNAc(b1-4)]Gal(b1-4)Glc
# Outline: as §1
# [28] = biological target: Neu5Ac(a2-8)Neu5Ac(a2-8)Neu5Ac(a2-3)[GalNAc(b1-4)]Gal(b1-4)Glc
# Outline: as §1
# [29] = biological target: Neu5Ac(a2-8)Neu5Ac(a2-8)Neu5Ac(a2-8)Neu5Ac(a2-3)[GalNAc(b1-4)]Gal(b1-4)Glc
# Outline: as §1
# [30] = biological target: Neu5Ac(a2-8)Neu5Gc(a2-3)Gal(b1-4)GlcNAc
# Outline: as §1
# [31] = biological target: Neu5Ac(b2-6)Gal(b1-4)GlcNAc
# Outline: as §1
# [32] = biological target: Neu5Ac(b2-6)GalNAc
# Outline: as §1
# [33] = biological target: Neu5Ac9Ac(a2-3)Gal(b1-3)GlcNAc
# Outline: as §1
# [34] = biological target: Neu5Ac9Ac(a2-3)Gal(b1-4)GlcNAc
# Outline: as §1
# [35] = biological target: Neu5Ac9Ac(a2-6)Gal(b1-4)GlcNAc
# Outline: as §1
# [36] = biological target: Neu5Gc(a2-3)Gal(b1-3)GlcNAc
# Outline: as §1
# [37] = biological target: Neu5Gc(a2-3)Gal(b1-3)[Fuc(a1-4)]GlcNAc
# Outline: as §1
# [38] = biological target: Neu5Gc(a2-3)Gal(b1-4)Glc
# Outline: as §1
# [39] = biological target: Neu5Gc(a2-3)Gal(b1-4)GlcNAc
# Outline: as §1
# [40] = biological target: Neu5Gc(a2-3)Gal(b1-4)GlcNAc(b1-3)Gal(b1-4)GlcNAc(b1-2)Man(a1-3)[Neu5Gc(a2-3)Gal(b1-4)GlcNAc(b1-3)Gal(b1-4)GlcNAc(b1-2)Man(a1-6)]Man(b1-4)GlcNAc(b1-4)GlcNAc
# Outline: as §1
# [41] = biological target: Neu5Gc(a2-3)Gal(b1-4)[Fuc(a1-3)]GlcNAc
# Outline: as §1
# [42] = biological target: Neu5Gc(a2-6)Gal(b1-4)GlcNAc
# Outline: as §1
# [43] = biological target: Neu5Gc(a2-6)GalNAc
# Outline: as §1
# [44] = biological target: Neu5Gc(a2-8)Neu5Ac(a2-3)Gal(b1-4)GlcNAc
# Outline: as §1
# [45] = biological target: Neu5Gc(a2-8)Neu5Gc(a2-3)Gal(b1-4)GlcNAc
# Outline: as §1
binder,measurement,setting,value
B1,glycan array binding signal (z-score),[1],0.739
same,glycan array binding signal (z-score),[2],1.78
same,glycan array binding signal (z-score),[3],0.122
same,glycan array binding signal (z-score),[4],0.26
same,glycan array binding signal (z-score),[5],-0.198
same,glycan array binding signal (z-score),[6],-0.536
same,glycan array binding signal (z-score),[7],0.178
same,glycan array binding signal (z-score),[8],-0.196
same,glycan array binding signal (z-score),[9],-0.178
same,glycan array binding signal (z-score),[10],0.217
same,glycan array binding signal (z-score),[11],0.315
same,glycan array binding signal (z-score),[12],2.67
same,glycan array binding signal (z-score),[13],-0.837
same,glycan array binding signal (z-score),[14],-0.379
same,glycan array binding signal (z-score),[15],-0.232
same,glycan array binding signal (z-score),[16],1.34
same,glycan array binding signal (z-score),[17],0.228
same,glycan array binding signal (z-score),[18],-0.59
same,glycan array binding signal (z-score),[19],0.038
same,glycan array binding signal (z-score),[20],-0.066
same,glycan array binding signal (z-score),[21],-0.58
same,glycan array binding signal (z-score),[22],-0.264
same,glycan array binding signal (z-score),[23],-0.393
same,glycan array binding signal (z-score),[24],-0.927
same,glycan array binding signal (z-score),[25],-0.324
same,glycan array binding signal (z-score),[26],-0.467
same,glycan array binding signal (z-score),[27],0.384
same,glycan array binding signal (z-score),[28],-0.92
same,glycan array binding signal (z-score),[29],-0.119
same,glycan array binding signal (z-score),[30],0.375
same,glycan array binding signal (z-score),[31],0.244
same,glycan array binding signal (z-score),[32],-0.135
same,glycan array binding signal (z-score),[33],-0.08
same,glycan array binding signal (z-score),[34],0.798
same,glycan array binding signal (z-score),[35],-0.158
same,glycan array binding signal (z-score),[36],-0.536
same,glycan array binding signal (z-score),[37],-0.763
same,glycan array binding signal (z-score),[38],0.129
same,glycan array binding signal (z-score),[39],0.866
same,glycan array binding signal (z-score),[40],1.95
same,glycan array binding signal (z-score),[41],-0.159
same,glycan array binding signal (z-score),[42],-0.476
same,glycan array binding signal (z-score),[43],-0.535
same,glycan array binding signal (z-score),[44],0.339
same,glycan array binding signal (z-score),[45],0.118

# Two neighbouring records from above:
binder,measurement,setting,value
B1,glycan array binding signal (z-score),[36],-0.536
same,glycan array binding signal (z-score),[37],-0.763
